{"sequences": {"note": "Chains of the proteins cited; added tags and fusions are not shown. Lines headed by an entry give the natural chain unless they say otherwise; changes in a name come on top.", "UniProt P13681": "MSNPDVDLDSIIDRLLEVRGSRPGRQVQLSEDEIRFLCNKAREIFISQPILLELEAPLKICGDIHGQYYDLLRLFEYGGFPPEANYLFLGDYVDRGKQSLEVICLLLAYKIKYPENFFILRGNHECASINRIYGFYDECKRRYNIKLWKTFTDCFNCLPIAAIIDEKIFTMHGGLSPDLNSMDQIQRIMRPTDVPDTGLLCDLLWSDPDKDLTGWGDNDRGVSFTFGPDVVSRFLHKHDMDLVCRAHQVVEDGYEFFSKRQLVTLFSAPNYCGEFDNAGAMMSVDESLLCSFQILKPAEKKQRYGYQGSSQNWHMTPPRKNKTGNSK", "UniProt Q96UP3": "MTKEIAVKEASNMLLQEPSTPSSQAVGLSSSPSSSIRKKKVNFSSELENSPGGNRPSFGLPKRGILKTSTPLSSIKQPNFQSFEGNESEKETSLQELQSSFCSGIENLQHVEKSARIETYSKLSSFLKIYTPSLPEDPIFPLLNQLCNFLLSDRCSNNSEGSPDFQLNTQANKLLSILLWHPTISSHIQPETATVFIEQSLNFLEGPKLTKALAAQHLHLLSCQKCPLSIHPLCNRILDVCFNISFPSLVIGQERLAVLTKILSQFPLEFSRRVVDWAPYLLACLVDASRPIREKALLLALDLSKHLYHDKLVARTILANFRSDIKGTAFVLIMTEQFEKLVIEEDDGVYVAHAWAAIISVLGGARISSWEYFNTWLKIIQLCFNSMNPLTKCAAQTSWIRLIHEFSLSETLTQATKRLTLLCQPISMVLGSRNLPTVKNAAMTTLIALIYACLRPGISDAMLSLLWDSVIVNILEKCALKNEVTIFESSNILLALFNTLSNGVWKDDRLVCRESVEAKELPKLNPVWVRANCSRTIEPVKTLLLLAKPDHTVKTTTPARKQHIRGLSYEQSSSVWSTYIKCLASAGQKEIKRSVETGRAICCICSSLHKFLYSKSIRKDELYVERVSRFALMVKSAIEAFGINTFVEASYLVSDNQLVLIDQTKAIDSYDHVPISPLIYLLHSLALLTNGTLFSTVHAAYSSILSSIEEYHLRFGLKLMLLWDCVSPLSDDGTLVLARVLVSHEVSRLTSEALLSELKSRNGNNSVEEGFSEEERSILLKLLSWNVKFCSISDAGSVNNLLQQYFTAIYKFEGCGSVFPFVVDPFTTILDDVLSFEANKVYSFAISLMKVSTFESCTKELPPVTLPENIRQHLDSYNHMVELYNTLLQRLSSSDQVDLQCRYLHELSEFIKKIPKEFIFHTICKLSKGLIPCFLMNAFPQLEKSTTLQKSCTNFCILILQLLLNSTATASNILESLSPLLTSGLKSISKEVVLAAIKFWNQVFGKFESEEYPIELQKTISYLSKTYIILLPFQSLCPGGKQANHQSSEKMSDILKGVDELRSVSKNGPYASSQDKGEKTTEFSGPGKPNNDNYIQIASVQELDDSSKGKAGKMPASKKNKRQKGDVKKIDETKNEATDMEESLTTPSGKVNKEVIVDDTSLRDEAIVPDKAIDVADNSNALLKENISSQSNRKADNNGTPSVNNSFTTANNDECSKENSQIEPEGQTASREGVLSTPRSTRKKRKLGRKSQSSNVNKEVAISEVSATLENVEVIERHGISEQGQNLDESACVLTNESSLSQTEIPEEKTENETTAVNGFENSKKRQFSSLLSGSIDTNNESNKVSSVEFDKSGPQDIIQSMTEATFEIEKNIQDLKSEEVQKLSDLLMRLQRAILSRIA"}, "source": "paper doi:10.1101/2022.05.13.491604", "key": {"[1]": {"biological_target": "Myc-tagged Dis2 (PP1) (fission yeast (Schizosaccharomyces pombe)) (UniProt P13681)", "experiment": "co-IP"}, "[2]": {"biological_target": "T1, Myc-tagged Sds21 (PP1) (fission yeast (Schizosaccharomyces pombe)) (UniProt P23880)", "T1 sequence": "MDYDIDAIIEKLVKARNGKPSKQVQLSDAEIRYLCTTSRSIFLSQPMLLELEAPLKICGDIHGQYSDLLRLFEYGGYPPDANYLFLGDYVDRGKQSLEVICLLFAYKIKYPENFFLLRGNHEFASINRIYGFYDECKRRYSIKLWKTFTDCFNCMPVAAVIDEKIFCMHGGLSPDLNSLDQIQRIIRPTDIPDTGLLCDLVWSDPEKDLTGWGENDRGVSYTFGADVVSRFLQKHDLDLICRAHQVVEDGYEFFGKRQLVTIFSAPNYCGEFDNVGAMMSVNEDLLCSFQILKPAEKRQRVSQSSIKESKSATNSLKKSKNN", "experiment": "co-IP"}}, "note": "Results are given in words; binding and its absence hold for the method and conditions named. In cells and extracts the contact can be indirect. For some assays here: Sequences can lack the tags named with a protein.", "data": [{"substance": "Flag-tagged Rif1 PP1-binding site mutant (PP1bsmut) (from UniProt Q96UP3)", "values": [{"measurement": "binding", "setting": "[1]", "result": "no binding"}, {"measurement": "binding", "setting": "[2]", "result": "no binding"}]}]}
